Results as given in the supplement of paper PMC10849652.
The other results are listed elsewhere or left out.

Chains of the proteins cited; added tags and fusions are not shown. Lines headed by an entry give the natural chain unless they say otherwise; changes in a name come on top.
UniProt Q8TCX1: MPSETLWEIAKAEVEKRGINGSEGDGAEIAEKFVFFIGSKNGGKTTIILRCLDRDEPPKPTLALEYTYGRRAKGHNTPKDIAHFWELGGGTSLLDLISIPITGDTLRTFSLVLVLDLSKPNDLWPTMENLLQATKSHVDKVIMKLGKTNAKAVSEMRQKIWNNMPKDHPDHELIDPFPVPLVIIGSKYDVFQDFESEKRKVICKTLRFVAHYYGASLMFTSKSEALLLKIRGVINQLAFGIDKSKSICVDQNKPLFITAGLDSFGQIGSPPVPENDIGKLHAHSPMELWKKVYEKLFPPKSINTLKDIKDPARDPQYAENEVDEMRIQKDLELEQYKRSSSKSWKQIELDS
UniProt Q92784, whole entry, looked up: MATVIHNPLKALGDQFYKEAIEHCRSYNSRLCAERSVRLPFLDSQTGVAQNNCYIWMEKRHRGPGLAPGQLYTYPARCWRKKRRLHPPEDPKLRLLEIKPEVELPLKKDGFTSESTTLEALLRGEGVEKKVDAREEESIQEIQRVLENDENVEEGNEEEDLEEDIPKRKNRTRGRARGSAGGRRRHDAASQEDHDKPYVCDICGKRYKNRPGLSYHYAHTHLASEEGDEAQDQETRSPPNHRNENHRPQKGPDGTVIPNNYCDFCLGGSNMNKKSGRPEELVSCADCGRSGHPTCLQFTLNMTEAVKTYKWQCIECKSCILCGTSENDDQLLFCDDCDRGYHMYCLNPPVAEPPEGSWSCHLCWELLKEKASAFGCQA
UniProt Q8WTR2: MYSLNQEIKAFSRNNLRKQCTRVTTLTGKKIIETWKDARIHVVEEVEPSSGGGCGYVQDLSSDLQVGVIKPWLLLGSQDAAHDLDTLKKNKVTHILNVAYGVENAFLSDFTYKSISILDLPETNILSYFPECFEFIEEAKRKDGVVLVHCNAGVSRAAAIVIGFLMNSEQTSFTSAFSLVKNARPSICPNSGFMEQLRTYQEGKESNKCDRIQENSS
UniProt O95147: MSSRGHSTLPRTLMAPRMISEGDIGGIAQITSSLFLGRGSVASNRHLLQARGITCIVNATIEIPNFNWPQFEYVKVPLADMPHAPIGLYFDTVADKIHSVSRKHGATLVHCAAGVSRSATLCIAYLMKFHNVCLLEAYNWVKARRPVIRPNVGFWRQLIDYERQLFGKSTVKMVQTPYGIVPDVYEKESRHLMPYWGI
UniProt Q9Y6B2: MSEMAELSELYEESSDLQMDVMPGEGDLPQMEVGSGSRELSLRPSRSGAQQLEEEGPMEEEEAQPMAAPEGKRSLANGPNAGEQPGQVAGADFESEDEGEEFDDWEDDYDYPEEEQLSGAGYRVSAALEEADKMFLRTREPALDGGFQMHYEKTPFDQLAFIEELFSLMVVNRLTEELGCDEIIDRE
UniProt Q96KS0, whole entry, looked up: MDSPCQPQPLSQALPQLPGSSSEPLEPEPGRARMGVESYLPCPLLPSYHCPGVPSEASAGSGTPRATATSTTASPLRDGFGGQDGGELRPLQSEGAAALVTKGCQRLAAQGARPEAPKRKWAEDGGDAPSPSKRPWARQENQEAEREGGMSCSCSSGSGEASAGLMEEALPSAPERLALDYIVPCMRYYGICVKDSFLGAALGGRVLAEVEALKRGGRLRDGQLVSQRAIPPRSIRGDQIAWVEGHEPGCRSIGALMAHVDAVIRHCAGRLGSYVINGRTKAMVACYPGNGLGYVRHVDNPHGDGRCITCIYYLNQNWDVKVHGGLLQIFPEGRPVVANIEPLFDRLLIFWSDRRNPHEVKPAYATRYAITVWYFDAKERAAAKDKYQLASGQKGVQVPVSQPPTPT
UniProt Q7L9B9: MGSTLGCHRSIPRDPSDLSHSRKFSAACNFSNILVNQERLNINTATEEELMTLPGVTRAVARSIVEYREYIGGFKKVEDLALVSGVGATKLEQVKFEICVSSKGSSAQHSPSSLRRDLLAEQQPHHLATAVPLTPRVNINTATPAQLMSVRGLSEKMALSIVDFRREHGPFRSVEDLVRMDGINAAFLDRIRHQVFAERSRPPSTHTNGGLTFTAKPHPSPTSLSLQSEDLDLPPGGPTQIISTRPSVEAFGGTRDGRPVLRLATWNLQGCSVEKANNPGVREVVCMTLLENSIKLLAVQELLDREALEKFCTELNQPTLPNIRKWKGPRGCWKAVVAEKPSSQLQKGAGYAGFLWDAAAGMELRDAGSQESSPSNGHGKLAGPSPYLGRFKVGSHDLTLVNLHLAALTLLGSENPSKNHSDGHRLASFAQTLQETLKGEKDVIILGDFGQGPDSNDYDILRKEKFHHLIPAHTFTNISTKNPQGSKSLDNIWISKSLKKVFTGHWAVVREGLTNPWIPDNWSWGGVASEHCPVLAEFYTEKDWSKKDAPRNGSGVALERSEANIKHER
UniProt Q8N7B9: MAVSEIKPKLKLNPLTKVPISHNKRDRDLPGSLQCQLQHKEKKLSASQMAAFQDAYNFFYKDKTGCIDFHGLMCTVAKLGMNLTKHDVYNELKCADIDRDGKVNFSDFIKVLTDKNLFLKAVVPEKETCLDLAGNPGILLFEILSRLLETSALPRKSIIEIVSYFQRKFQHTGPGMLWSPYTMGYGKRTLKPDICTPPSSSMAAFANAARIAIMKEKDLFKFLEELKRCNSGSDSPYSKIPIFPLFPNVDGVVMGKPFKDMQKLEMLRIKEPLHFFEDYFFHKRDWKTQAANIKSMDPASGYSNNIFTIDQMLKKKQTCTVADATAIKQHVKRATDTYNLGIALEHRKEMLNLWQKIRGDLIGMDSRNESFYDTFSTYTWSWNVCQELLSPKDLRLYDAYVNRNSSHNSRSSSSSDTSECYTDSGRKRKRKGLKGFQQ
UniProt P29692: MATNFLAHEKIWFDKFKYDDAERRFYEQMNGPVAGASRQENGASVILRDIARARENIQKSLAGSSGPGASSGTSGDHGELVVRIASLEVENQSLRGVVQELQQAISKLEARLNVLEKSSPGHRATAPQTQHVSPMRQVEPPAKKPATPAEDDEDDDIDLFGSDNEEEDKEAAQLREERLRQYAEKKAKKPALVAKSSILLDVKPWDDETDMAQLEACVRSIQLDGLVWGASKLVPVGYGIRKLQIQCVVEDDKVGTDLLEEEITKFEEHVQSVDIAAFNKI
UniProt O14576, whole entry, looked up: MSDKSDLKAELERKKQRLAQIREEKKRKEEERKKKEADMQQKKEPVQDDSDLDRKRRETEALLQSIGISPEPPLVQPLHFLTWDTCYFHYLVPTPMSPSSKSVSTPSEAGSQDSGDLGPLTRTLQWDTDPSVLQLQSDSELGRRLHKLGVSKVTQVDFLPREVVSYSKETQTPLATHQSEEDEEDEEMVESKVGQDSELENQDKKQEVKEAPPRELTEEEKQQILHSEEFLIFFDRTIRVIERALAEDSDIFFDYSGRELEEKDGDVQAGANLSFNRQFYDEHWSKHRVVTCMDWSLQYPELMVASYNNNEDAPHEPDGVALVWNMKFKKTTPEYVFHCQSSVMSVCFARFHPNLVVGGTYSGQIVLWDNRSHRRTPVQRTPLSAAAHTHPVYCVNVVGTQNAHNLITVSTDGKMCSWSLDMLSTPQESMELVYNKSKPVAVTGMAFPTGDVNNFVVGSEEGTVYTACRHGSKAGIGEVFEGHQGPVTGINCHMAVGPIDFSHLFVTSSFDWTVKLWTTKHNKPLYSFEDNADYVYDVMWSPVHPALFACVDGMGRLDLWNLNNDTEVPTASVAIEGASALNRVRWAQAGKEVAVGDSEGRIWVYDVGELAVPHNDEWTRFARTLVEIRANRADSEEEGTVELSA
UniProt Q92782, whole entry, looked up: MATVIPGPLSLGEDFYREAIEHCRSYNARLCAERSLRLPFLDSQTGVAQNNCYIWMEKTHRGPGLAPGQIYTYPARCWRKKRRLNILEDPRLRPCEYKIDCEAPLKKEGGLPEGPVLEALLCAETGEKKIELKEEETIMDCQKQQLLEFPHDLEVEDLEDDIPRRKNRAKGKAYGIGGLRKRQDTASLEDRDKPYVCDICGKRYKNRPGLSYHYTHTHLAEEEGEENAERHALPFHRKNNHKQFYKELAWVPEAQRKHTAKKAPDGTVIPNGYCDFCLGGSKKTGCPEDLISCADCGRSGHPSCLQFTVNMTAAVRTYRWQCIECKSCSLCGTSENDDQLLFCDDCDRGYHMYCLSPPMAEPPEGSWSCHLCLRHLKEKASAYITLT
UniProt Q96G04: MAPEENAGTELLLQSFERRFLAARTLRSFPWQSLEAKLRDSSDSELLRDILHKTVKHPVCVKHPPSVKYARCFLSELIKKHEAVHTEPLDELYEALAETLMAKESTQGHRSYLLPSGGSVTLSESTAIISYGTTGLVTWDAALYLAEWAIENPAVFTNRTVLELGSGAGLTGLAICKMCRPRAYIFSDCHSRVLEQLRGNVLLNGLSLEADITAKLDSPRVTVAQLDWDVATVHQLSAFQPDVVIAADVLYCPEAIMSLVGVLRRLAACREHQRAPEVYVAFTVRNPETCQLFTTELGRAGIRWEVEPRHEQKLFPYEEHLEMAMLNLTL
UniProt Q86Y13: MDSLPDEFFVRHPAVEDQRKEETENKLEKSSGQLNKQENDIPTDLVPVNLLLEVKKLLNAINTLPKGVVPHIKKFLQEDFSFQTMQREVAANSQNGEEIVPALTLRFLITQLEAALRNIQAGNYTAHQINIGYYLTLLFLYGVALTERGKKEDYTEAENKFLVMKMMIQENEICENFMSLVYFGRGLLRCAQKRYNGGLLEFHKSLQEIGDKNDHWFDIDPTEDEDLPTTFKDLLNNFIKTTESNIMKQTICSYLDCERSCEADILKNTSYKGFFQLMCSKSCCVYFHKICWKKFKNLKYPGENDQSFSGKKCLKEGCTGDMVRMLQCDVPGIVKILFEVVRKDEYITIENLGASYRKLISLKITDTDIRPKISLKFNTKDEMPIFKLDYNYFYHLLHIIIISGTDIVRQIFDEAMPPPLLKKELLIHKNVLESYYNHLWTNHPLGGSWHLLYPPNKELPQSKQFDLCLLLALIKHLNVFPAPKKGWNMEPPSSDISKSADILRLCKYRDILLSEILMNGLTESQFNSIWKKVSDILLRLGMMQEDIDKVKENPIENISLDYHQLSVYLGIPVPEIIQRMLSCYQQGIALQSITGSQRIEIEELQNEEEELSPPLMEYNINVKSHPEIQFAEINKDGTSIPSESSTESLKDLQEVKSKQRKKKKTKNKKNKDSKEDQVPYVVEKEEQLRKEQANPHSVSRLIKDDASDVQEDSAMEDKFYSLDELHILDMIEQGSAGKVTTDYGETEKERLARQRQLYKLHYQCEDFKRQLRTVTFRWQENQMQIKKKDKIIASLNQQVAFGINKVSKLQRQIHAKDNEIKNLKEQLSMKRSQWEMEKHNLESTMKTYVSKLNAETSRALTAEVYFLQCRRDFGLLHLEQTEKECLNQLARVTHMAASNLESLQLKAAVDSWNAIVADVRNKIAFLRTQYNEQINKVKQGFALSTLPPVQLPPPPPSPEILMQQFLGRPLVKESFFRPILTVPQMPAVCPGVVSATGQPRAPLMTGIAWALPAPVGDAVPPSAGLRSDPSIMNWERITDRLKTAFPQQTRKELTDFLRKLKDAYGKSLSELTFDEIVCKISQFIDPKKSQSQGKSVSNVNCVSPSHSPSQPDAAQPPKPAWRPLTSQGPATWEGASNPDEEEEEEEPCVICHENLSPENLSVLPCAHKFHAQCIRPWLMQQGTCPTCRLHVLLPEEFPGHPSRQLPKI
UniProt O14640: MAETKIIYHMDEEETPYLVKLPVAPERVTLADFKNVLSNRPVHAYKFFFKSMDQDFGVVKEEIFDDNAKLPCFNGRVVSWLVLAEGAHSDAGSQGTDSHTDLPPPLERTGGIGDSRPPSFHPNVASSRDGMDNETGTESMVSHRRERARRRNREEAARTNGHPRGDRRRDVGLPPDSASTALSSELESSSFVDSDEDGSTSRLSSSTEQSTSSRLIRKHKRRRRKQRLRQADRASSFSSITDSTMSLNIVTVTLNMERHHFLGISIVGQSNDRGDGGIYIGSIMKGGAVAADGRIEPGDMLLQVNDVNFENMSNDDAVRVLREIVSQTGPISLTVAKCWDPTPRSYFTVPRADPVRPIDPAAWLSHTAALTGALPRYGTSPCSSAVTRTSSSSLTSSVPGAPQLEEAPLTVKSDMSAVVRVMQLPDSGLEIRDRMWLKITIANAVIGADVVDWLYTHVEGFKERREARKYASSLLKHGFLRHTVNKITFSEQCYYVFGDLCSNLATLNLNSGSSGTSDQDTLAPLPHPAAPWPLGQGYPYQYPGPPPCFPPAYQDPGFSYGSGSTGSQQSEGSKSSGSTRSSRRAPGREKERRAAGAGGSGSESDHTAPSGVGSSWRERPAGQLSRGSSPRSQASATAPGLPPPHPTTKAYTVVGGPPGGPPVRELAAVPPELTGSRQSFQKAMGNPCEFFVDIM
UniProt Q5VUJ9: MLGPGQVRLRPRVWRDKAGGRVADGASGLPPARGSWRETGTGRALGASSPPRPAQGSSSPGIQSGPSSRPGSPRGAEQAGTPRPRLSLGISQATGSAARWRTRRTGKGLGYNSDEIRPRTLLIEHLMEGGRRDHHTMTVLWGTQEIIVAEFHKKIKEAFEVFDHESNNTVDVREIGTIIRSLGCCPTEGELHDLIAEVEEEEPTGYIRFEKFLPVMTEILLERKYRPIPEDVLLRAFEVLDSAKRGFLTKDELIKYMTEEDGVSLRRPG

Columns and labels:
Experiment in all cases: log2 fold change, soluble protein after heating vs DMSO (PISA); higher = thermal stabilisation; K562 lysate, 10 uM; active = over 0.2 and 3.5 SD of the protein, either way, in both replicates (recomputed)
pictilisib = compound: CS(=O)(=O)N1CCN(Cc2cc3nc(-c4cccc5[nH]ncc45)nc(N4CCOCC4)c3s2)CC1 [pictilisib]
Procedure, shortened: (§1)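 Log-two fold change in thermal stability relative to solvent controls is reported from duplicates. For each sample, crude K562 extract from dounce-homogenised pellets in PBS pH 7.4 with 1 mM MgCl2, at 1 mg/mL protein, was treated with 10 μM compound for 30 min. Aliquots heated for 3 min across 48°C-58°C were pooled, brought to 0.5% NP-40 at 4°C and cleared at 21,000xg for 90 min. The supernatant was quantified by TMTpro 16plex LC-MS/MS with channel sums equalised.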

crizotinib = compound: C[C@@H](Oc1cc(-c2cnn(C3CCNCC3)c2)cnc1N)c1c(Cl)ccc(F)c1Cl [crizotinib]
Procedure, shortened: as §1

[1] = compound: C[C@H](C1=CC=C(C=C1)C(=O)NC2=C3C=CNC3=NC=C2)N
Procedure, shortened: as §1

duvelisib = compound: C[C@H](Nc1ncnc2nc[nH]c12)c1cc2cccc(Cl)c2c(=O)n1-c1ccccc1 [duvelisib]
Procedure, shortened: as §1

gandotinib = compound: Cc1cc(Nc2cc(CN3CCOCC3)c3nc(C)c(Cc4ccc(Cl)cc4F)n3n2)n[nH]1 [gandotinib]
Procedure, shortened: as §1

doramapimod = compound: Cc1ccc(-n2nc(C(C)(C)C)cc2NC(=O)Nc2ccc(OCCN3CCOCC3)c3ccccc23)cc1 [doramapimod]
Procedure, shortened: as §1

bafetinib = compound: Cc1ccc(NC(=O)c2ccc(CN3CC[C@H](N(C)C)C3)c(C(F)(F)F)c2)cc1Nc1nccc(-c2cncnc2)n1 [bafetinib]
Procedure, shortened: as §1

[2] = compound: Cc1cccc(CC(=O)N2CCc3c2ccc(-c2cn(C)c4ncnc(N)c24)c3F)n1
Procedure, shortened: as §1

nilotinib = compound: Cc1cn(-c2cc(NC(=O)c3ccc(C)c(Nc4nccc(-c5cccnc5)n4)c3)cc(C(F)(F)F)c2)cn1 [nilotinib]
Procedure, shortened: as §1

[3] = compound: Cc1nc(Nc2n[nH]c3c2CN(C(=O)N[C@H](CN(C)C)c2ccccc2)C3(C)C)c2sccc2n1
Procedure, shortened: as §1

dasatinib = compound: Cc1nc(Nc2ncc(C(=O)Nc3c(C)cccc3Cl)s2)cc(N2CCN(CCO)CC2)n1 [dasatinib]
Procedure, shortened: as §1

[4] = compound: Cc1ncc(-c2ccnc(Nc3ccc(S(C)(=O)=O)cc3)n2)n1C(C)C
Procedure, shortened: as §1

[5] = compound: Cn1cc(-c2ccc3c(c2)CCN3C(=O)Cc2cccc(C(F)(F)F)c2)c2c(N)ncnc21
Procedure, shortened: as §1

quisinostat = compound: Cn1cc(CNCC2CCN(c3ncc(C(=O)NO)cn3)CC2)c2ccccc21 [quisinostat]
Procedure, shortened: as §1

tipifarnib = compound: Cn1cncc1[C@@](N)(c1ccc(Cl)cc1)c1ccc2c(c1)c(-c1cccc(Cl)c1)cc(=O)n2C [tipifarnib]
Procedure, shortened: as §1

[6] = compound: NC(=O)Nc1cc(-c2cccc(F)c2)sc1C(=O)N[C@H]1CCCNC1
Procedure, shortened: as §1

lapatinib = compound: CS(=O)(=O)CCNCc1ccc(-c2ccc3ncnc(Nc4ccc(OCc5cccc(F)c5)c(Cl)c4)c3c2)o1 [lapatinib]
Procedure, shortened: as §1

[7] = compound: NC(=O)c1cnc(N[C@@H]2CCCC[C@@H]2N)nc1Nc1cccc(-n2nccn2)c1
Procedure, shortened: as §1

[8] = compound: NC1(c2ccc(-c3nc4ccn5c(=O)[nH]nc5c4cc3-c3ccccc3)cc2)CCC1
Procedure, shortened: as §1

tozasertib = compound: Cc1cc(Nc2cc(N3CCN(C)CC3)nc(Sc3ccc(NC(=O)C4CC4)cc3)n2)n[nH]1 [tozasertib]
Procedure, shortened: as §1

Measured: log2 fold change

DYNC2LI1 (UniProt Q8TCX1)
inactive: pictilisib -0.002 | crizotinib -0.038 | [1] -0.057 | duvelisib 0.017 | gandotinib -0.002 | doramapimod 0.082 | bafetinib -0.083 | [2] -0.013 | nilotinib -0.009 | [3] 0.031 | dasatinib -0.001 | [4] 0.045 | [5] 0.044 | quisinostat -0.035 | tipifarnib -0.048 | [6] 0.134

DPF3 isoform 3 (UniProt Q92784)
inactive: pictilisib 0.016 | bafetinib 0.102 | nilotinib 0.147 | [3] 0.06 | [4] 0.01 | tipifarnib 0.069

DUSP19 (UniProt Q8WTR2)
inactive: lapatinib 0.086 | pictilisib -0.016 | crizotinib -0.077 | [1] -0.533 | gandotinib 0.168 | doramapimod 0.075 | bafetinib -0.076 | [2] 0.137 | nilotinib -0.065 | [3] 0.116 | [4] -0.35 | quisinostat -0.224 | tipifarnib -0.41 | [6] 0.022 | [7] -0.078 | [8] 0.004

DUSP14 (UniProt O95147)
inactive: lapatinib -0.029 | [1] -0.03 | duvelisib 0.079 | gandotinib -0.091 | tozasertib -0.087 | [2] -0.116 | dasatinib -0.19 | [5] -0.192 | [7] 0.041 | [8] -0.045

Copied from the entries so far (2 entries):
DYNC2LI1 (UniProt Q8TCX1)
inactive: pictilisib -0.002 | crizotinib -0.038 | [1] -0.057 | duvelisib 0.017 | gandotinib -0.002 | doramapimod 0.082 | bafetinib -0.083 | [2] -0.013 | nilotinib -0.009 | [3] 0.031 | dasatinib -0.001 | [4] 0.045 | [5] 0.044 | quisinostat -0.035 | tipifarnib -0.048 | [6] 0.134

DPF3 isoform 3 (UniProt Q92784)
inactive: pictilisib 0.016 | bafetinib 0.102 | nilotinib 0.147 | [3] 0.06 | [4] 0.01 | tipifarnib 0.069

(list continues)

EID1 (UniProt Q9Y6B2)
inactive: [1] -0.02 | gandotinib 0.108 | tozasertib -0.043 | [2] 0.069 | nilotinib 0.067 | [3] 0.085 | dasatinib -0.306 | [4] 0.05 | [5] 0.32 | tipifarnib 0.021 | [8] 0.133
active: duvelisib 0.604

EDEM2 (UniProt Q9BV94)
inactive: lapatinib -0.098 | crizotinib 0.149 | [1] -0.084 | duvelisib 0.081 | gandotinib 0.026 | tozasertib -0.078 | doramapimod -0.001 | [2] 0.031 | nilotinib -0.023 | [3] -0.071 | dasatinib 0.065 | [4] -0.016 | [5] 0.008 | quisinostat 0.158 | tipifarnib 0.004 | [6] -0.027 | [7] -0.074 | [8] -0.139

EGLN2 (UniProt Q96KS0)
inactive: crizotinib 0.258 | [1] 0.252 | gandotinib -0.117 | tozasertib 0.229 | doramapimod 0.026 | [2] -0.068 | quisinostat 0.103 | [6] -0.17

DTL (UniProt Q9NZJ0)
inactive: pictilisib -0.026 | crizotinib -0.035 | [1] 0.059 | duvelisib 0.174 | gandotinib -0.053 | doramapimod 0.064 | bafetinib -0.099 | [2] 0.006 | nilotinib 0.005 | [3] -0.022 | dasatinib 0.044 | [4] -0.052 | [5] 0.066 | tipifarnib 0.036 | [6] 0.025 | [8] 0.048
active: quisinostat -0.227

EEPD1 (UniProt Q7L9B9)
inactive: crizotinib -0.007 | doramapimod 0.068 | quisinostat 0.071 | [6] -0.138

EFCAB3 (UniProt Q8N7B9)
inactive: lapatinib -0.097 | crizotinib 0.094 | doramapimod 0 | quisinostat 0.213 | [6] 0.033 | [7] -0.093 | [8] 0.163

EEF1D isoform 3 (UniProt P29692)
inactive: lapatinib -0.068 | pictilisib -0.366 | crizotinib 0.197 | doramapimod -0.151 | bafetinib -0.215 | quisinostat 0.011 | [6] 0 | [7] -0.393 | [8] -0.056

DYNC1I1 (UniProt O14576)
inactive: lapatinib 0.014 | [1] -0.291 | duvelisib 0.038 | gandotinib -0.161 | tozasertib 0.02 | [2] 0.215 | dasatinib -0.008 | [5] -0.03 | [7] 0.071 | [8] -0.034

DPF1 isoform 2 (UniProt Q92782)
inactive: lapatinib -0.059 | pictilisib 0.074 | crizotinib 0.042 | duvelisib -0.216 | tozasertib 0.097 | doramapimod 0.055 | bafetinib -0.007 | dasatinib -0.46 | [5] 0.467 | quisinostat -0.033 | [6] 0.001 | [7] 0.096 | [8] -0.091

DTX3L (UniProt Q8TDB6)
inactive: pictilisib -0.157 | crizotinib 0.026 | [1] -0.058 | duvelisib 0.076 | gandotinib 0.01 | tozasertib -0.015 | doramapimod -0.052 | bafetinib -0.228 | [2] -0.105 | dasatinib -0.052 | [5] -0.057 | quisinostat -0.013 | [6] 0.053 | [8] 0.03

EEF2KMT (UniProt Q96G04)
inactive: crizotinib 0.02 | [1] 0.182 | duvelisib 0.035 | gandotinib -0.083 | tozasertib 0.063 | doramapimod 0.124 | [2] 0.078 | nilotinib -0.079 | [3] 0.25 | dasatinib -0.004 | [4] 0.166 | [5] -0.088 | quisinostat -0.133 | tipifarnib -0.269 | [6] 0 | [8] 0.048

DZIP3 (UniProt Q86Y13)
inactive: [8] 0.015

DVL1 (UniProt O14640)
inactive: tozasertib 0.148

DPY19L3 (UniProt Q6ZPD9)
inactive: lapatinib -0.077 | pictilisib -0.268 | crizotinib -0.107 | tozasertib 0.057 | doramapimod -0.081 | bafetinib -0.113 | quisinostat -0.103 | [6] 0.034 | [7] 0.045
active: [8] -0.683

DSG3 (UniProt P32926)
inactive: pictilisib -0.162 | [1] -0.008 | gandotinib 0.11 | bafetinib 0.185 | [2] 0.232

EFCAB2 isoform 2 (UniProt Q5VUJ9)
inactive: crizotinib 0.06 | [1] -0.162 | gandotinib -0.084 | tozasertib 0.104 | doramapimod 0.076 | [2] 0.054 | nilotinib -0.078 | [3] -0.065 | [4] 0 | quisinostat 0.101 | tipifarnib -0.099 | [6] -0.072 | [8] -0.027

DUSP12 (UniProt V9GYV5)
inactive: [1] -0.085 | gandotinib 0.047 | [2] 0.152
